Test results: patent US7264932B2, “Nuclease inhibitor cocktail” (Applera Corporation, priority 1999, dated 2007)

Tested on: RNases in frozen mouse liver tissue sections
Experiment: Isolation of intact RNA from fixed frozen tissue sections

With Cc1cc(-c2ccc(/N=N/c3c(N)ccc4cc(S(=O)(=O)O)ccc34)c(C)c2)ccc1/N=N/c1c(N)ccc2cc(S(=O)(=O)O)ccc12 [Benzopurpurin B, 3,3′-di-methylbiphenyl-4,4′-bis(2-amino-naphthylazo-6-sulfo-nate)] the “isolation of intact total RNA” value (inhibitor in the acetone fixative (2 mM Benzopurpurin B)) was “absolutely required” and the “incubation time without a significant loss of ribosomal RNA integrity” value (inhibitor incorporated into the 1×PBS solution) was “up to 20 min”.
